Paper PMC10944492
No constants are given. Whether binding was seen depends on the method and setting. Binding seen in cells or lysates may run through a third protein. Some results given as binding are weak or reduced against the parent protein; the word gives no strength. For some of these results: Tags and fused reporters may be left off the sequences shown.

Amino acid sequences for entries named in this document (tags omitted).
UniProt P70210: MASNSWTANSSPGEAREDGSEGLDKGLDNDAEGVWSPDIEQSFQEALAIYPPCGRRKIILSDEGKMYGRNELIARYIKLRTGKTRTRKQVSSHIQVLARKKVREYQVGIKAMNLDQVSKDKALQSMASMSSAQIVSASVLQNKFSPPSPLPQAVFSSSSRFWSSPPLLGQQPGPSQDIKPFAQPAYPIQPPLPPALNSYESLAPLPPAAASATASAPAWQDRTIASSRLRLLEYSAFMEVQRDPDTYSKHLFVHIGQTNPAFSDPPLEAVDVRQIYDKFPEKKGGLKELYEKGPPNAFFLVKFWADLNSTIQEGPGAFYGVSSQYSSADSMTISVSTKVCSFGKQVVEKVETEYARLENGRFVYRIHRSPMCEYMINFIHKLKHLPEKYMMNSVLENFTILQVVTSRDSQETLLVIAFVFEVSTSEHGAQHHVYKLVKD
UniProt P01100: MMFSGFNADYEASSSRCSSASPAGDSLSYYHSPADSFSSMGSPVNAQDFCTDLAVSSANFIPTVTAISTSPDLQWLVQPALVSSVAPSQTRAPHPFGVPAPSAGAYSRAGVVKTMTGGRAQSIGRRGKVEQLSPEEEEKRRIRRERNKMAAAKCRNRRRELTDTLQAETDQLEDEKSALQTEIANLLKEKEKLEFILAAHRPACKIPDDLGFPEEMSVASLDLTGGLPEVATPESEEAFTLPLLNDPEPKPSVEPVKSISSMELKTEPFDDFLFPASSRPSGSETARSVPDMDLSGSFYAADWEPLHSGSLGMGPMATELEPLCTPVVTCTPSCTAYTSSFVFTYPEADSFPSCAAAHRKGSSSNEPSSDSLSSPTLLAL
UniProt P16220: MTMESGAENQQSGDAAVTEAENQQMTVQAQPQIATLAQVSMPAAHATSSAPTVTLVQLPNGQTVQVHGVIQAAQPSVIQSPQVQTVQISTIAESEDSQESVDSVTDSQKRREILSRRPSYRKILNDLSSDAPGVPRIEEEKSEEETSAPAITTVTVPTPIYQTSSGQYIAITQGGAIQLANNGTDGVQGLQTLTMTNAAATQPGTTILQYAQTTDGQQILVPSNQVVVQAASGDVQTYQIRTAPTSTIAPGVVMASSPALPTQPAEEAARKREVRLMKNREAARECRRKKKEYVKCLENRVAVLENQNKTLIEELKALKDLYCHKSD
UniProt P05412: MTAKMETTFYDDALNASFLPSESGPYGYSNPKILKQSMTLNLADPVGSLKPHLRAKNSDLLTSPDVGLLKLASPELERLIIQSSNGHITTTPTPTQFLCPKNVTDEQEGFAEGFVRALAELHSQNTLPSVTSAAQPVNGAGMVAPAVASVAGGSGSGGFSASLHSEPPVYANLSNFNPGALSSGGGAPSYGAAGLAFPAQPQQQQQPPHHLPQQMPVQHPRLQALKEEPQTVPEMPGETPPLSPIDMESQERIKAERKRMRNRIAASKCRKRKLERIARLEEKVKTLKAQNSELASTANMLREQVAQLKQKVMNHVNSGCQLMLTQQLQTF

Columns and labels:
[1] = biological target: T1, SFB-tagged mouse Nfatc1, full-length (mouse) (UniProt O88942); assay: co-IP; HEK293T cells (also MALAT1-knockout and Malat1-restored HEK293T) co-transfected with SFB-Nfatc1 and MYC-Tead3; RIPA lysis, sonication; precipitated with S-protein beads or anti-MYC beads at 4 °C overnight; blots for MYC and FLAG
T1 sequence: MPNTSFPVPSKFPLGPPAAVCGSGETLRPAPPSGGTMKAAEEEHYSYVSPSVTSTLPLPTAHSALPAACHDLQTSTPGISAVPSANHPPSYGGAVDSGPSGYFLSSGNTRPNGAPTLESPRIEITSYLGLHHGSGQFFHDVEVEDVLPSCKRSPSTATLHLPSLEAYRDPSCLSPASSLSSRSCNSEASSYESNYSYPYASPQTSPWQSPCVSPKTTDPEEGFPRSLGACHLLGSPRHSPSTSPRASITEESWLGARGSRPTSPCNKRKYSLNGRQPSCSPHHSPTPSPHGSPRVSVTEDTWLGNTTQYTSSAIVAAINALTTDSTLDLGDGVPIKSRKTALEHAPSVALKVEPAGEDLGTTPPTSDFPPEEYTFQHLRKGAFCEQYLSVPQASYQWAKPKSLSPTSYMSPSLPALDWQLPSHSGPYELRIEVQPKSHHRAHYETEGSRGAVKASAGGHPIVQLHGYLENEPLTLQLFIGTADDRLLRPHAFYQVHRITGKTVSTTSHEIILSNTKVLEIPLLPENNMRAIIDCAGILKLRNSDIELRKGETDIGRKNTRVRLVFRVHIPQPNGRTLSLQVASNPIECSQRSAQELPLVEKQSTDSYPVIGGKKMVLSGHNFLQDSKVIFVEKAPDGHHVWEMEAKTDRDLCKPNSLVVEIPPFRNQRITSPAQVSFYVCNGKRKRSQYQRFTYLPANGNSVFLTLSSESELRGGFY

[2] = biological target: T2, NFATC1 pulled down from control, MALAT1-knockout and Malat1-restored HEK293T cells (UniProt O88942); assay: co-IP; NFATC1 pulled down from control, MALAT1-knockout and Malat1-restored HEK293T cells; blots with antibodies against FOS, JUN and CREB1
T2 sequence: T1 sequence

binding [1] | binding [2] | Substance
binds | – | MYC-tagged mouse Tead3, full-length (from UniProt P70210 1-439)
– | no binding | FOS (from UniProt P01100 1-380)
– | binds | CREB1 (from UniProt P16220 1-327)
– | binds | JUN (from UniProt P05412 1-331)
